From patent publication US20240247072A1 (KEYMED BIOSCIENCES, published 2024)
These are yes or no findings as the source states them, for the method shown. A result given as binding can be weak or reduced; the word gives no strength.

Target: recombinant cynomolgus monkey CD70 protein (cynomolgus monkey)
Assay: ELISA binding, hybridoma supernatant, monkey CD70

B1: 10C19-D11 hybridoma antibody (antibody, V domains shown)
VH: QVQLQQSGPGLVQPSQSLSITCTVSGFSLTTYAVHWFRQSPGQGLEWLGVIWSTGITDFNAAFISRLNINKDSSKSQIFFKMISLQPNDTAIYYCGRNSYYGNLYAMDYWGQGTSVTVSS
VL: DIVLTQSPTSLAVSLGQRATISCRASKSVSASGYNFMHWYQQKPGQPPKLLIYLASNLESGVPARFSGSGSETDFTLNIHPVEEGDAATYYCQHSRELPLTFGAGTKLELK
notes: Mouse antibody in hybridoma culture supernatant
  binding: binds
